doi:10.1101/2025.10.26.684696
Results are given in words; binding and its absence hold for the method and conditions named. Some entries that bind do so weakly or less than the wild type.

The chains behind the UniProt entries cited, without tags or fusion partners. Residues count along the entry.
UniProt Q9Y6N7, residues 26-897: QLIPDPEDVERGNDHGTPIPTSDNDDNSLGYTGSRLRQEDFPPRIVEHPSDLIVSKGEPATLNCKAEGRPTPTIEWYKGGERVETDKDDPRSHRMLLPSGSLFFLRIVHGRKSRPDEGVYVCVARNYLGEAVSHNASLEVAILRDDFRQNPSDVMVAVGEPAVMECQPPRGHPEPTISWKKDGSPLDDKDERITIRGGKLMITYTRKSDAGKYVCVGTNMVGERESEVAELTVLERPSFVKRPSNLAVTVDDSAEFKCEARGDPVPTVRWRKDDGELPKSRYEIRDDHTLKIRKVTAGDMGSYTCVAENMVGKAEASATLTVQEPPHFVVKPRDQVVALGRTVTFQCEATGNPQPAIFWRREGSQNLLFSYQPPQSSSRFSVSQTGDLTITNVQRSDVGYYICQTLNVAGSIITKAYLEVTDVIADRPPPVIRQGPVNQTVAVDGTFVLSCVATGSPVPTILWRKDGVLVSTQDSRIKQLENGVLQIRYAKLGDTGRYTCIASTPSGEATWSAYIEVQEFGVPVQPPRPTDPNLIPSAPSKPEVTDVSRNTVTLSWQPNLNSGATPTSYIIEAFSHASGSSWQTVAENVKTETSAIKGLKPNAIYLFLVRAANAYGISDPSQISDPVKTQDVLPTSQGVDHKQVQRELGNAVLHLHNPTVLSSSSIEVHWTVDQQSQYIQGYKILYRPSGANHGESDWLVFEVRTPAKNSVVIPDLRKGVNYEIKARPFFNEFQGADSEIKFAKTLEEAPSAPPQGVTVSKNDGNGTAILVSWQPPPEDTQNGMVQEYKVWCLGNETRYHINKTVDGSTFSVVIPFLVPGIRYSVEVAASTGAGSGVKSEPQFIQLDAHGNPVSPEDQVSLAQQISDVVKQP

Molecular target: Human ROBO1–Fc (human) (UniProt Q9Y6N7)
Assay: BLI

B1: SLIT2 (recombinant) (ligand, UniProt O94813)
chain: QCSCSGSTVDCHGLALRSVPRNIPRNTERLDLNGNNITRITKTDFAGLRHLRVLQLMENKISTIERGAFQDLKELERLRLNRNHLQLFPELLFLGTAKLYRLDLSENQIQAIPRKAFRGAVDIKNLQLDYNQISCIEDGAFRALRDLEVLTLNNNNITRLSVASFNHMPKLRTFRLHSNNLYCDCHLAWLSDWLRQRPRVGLYTQCMGPSHLRGHNVAEVQKREFVCSGHQSFMAPSCSVLHCPAACTCSNNIVDCRGKGLTEIPTNLPETITEIRLEQNTIKVIPPGAFSPYKKLRRIDLSNNQISELAPDAFQGLRSLNSLVLYGNKITELPKSLFEGLFSLQLLLLNANKINCLRVDAFQDLHNLNLLSLYDNKLQTIAKGTFSPLRAIQTMHLAQNPFICDCHLKWLADYLHTNPIETSGARCTSPRRLANKRIGQIKSKKFRCSAKEQYFIPGTEDYRSKLSGDCFADLACPEKCRCEGTTVDCSNQKLNKIPEHIPQYTAELRLNNNEFTVLEATGIFKKLPQLRKINFSNNKITDIEEGAFEGASGVNEILLTSNRLENVQHKMFKGLESLKTLMLRSNRITCVGNDSFIGLSSVRLLSLYDNQITTVAPGAFDTLHSLSTLNLLANPFNCNCYLAWLGEWLRKKRIVTGNPRCQKPYFLKEIPIQDVAIQDFTCDDGNDDNSCSPLSRCPTECTCLDTVVRCSNKGLKVLPKGIPRDVTELYLDGNQFTLVPKELSNYKHLTLIDLSNNRISTLSNQSFSNMTQLLTLILSYNRLRCIPPRTFDGLKSLRLLSLHGNDISVVPEGAFNDLSALSHLAIGANPLYCDCNMQWLSDWVKSEYKEPGIARCAGPGEMADKLLLTTPSKKFTCQGPVDVNILAKCNPCLSNPCKNDGTCNSDPVDFYRCTCPYGFKGQDCDVPIHACISNPCKHGGTCHLKEGEEDGFWCICADGFEGENCEVNVDDCEDNDCENNSTCVDGINNYTCLCPPEYTGELCEEKLDFCAQDLNPCQHDSKCILTPKGFKCDCTPGYVGEHCDIDFDDCQDNKCKNGAHCTDAVNGYTCICPEGYSGLFCEFSPPMVLPRTSPCDNFDCQNGAQCIVRINEPICQCLPGYQGEKCEKLVSVNFINKESYLQIPSAKVRPQTNITLQIATDEDSGILLYKGDKDHIAVELYRGRVRASYDTGSHPASAIYSVETINDGNFHIVELLALDQSLSLSVDGGNPKIITNLSKQSTLNFDSPLYVGGMPGKSNVASLRQAPGQNGTSFHGCIRNLYINSELQDFQKVPMQTGILPGCEPCHKKVCAHGTCQPSSQAGFTCECQEGWMGPLCDQRTNDPCLGNKCVHGTCLPINAFSYSCKCLEGHGGVLCDEEEDLFNPCQAIKCKHGKCRLSGLGQPYCECSSGYTGDSCDREISCRGERIRDYYQKQQGYAACQTTKKVSRLECRGGCAGGQCCGPLRSKRRKYSFECTDGSSFVDEVEKVVKCGCTRCVS
For B1, the binding was “binds”.
